Assay results taken from paper PMC8552907.
No constants are given. Whether binding was seen depends on the method and setting. In cells and extracts the contact can be indirect. Some entries that bind do so weakly or less than the wild type.

Assays:
Assay in all cases: co-IP
[1] = target: Strep-HA-tagged SARS-CoV-2 NSP13 (SARS-CoV-2) (UniProt P0DTD1)
[2] = target: Strep-HA-tagged SARS-CoV-2 NSP14 (SARS-CoV-2) (UniProt P0DTD1)
[3] = target: Strep-HA-tagged DDX39B (human) (UniProt Q13838)

Substance | binding [1] | binding [2] | binding [3]
V5-tagged DDX39B (from UniProt Q13838 1-428) (enzyme) | binds | binds | 
V5-tagged SARS-CoV-2 NSP5 (from UniProt P0DTD1 3264-3569) |  |  | binds
V5-tagged SARS-CoV-2 NSP6 (from UniProt P0DTD1 3570-3859) |  |  | binds
V5-tagged SARS-CoV-2 NSP13 (from UniProt P0DTD1 5325-5925) |  |  | binds
V5-tagged SARS-CoV-2 NSP14 (from UniProt P0DTD1) |  |  | binds
